Measured values from publication PMC10865787.

Amino acid sequences for entries named in this document (tags omitted).
UniProt P0DTC6: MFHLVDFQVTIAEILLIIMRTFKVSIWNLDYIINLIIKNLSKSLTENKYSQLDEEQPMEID
UniProt Q96JK2: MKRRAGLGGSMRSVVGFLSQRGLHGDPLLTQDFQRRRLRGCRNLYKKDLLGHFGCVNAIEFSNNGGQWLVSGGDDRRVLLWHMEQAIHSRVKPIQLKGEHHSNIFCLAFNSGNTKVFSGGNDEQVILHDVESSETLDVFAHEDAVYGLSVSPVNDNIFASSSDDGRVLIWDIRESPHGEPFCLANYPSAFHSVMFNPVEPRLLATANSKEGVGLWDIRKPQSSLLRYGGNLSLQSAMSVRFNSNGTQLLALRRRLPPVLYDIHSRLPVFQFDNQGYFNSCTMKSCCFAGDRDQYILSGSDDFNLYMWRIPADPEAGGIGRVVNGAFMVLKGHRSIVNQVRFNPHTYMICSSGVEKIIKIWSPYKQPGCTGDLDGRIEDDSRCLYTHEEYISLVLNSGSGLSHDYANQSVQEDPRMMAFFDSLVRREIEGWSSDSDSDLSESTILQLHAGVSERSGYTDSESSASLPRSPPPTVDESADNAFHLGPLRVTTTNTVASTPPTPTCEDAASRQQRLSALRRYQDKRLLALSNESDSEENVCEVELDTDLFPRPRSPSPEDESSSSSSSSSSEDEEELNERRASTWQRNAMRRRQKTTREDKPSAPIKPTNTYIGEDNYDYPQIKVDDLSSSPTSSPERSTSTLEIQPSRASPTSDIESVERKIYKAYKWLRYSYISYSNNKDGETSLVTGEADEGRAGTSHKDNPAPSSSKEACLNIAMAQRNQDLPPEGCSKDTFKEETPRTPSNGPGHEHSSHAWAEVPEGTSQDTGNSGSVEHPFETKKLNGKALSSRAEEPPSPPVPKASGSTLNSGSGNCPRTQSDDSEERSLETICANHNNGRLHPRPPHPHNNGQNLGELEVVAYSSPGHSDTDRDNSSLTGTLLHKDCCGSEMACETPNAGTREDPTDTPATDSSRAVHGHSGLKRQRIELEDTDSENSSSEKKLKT
UniProt Q16531: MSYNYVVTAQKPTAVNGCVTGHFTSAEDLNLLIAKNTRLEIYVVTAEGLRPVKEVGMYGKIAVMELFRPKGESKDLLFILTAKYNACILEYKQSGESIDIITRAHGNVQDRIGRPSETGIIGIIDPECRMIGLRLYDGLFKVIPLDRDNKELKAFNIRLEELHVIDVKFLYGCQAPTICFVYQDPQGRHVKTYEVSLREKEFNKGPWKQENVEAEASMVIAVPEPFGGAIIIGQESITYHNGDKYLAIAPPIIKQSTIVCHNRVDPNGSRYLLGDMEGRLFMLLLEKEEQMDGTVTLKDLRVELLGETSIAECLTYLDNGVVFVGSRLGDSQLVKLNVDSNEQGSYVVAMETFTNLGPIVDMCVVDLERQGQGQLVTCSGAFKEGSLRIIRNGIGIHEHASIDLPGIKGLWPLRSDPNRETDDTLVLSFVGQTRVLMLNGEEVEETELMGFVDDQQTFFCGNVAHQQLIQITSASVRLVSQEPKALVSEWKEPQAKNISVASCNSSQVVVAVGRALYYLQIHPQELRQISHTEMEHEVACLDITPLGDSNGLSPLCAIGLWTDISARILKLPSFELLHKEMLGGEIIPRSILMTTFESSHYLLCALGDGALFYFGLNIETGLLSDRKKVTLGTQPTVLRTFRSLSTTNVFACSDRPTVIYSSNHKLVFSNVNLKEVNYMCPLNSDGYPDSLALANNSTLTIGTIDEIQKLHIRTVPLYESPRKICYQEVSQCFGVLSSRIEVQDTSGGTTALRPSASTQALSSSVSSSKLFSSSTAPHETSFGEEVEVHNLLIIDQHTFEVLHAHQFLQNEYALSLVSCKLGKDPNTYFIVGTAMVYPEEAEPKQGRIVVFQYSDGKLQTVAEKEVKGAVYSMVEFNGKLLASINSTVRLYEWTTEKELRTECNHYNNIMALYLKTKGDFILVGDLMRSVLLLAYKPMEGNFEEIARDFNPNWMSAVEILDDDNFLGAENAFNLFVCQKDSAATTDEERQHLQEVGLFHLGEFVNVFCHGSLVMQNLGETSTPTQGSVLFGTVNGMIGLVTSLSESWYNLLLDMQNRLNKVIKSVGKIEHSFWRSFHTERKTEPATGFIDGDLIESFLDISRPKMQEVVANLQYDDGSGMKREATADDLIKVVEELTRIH
UniProt Q9BQA1: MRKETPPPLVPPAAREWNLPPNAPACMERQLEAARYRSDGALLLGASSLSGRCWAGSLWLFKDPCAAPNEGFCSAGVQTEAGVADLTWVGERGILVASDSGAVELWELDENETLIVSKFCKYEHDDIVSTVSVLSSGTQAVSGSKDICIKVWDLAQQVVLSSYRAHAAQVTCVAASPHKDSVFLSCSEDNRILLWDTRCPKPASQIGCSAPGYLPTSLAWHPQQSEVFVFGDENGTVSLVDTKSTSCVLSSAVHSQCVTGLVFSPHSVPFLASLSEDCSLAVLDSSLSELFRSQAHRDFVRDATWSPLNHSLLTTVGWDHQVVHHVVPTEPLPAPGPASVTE
UniProt Q6UXN9: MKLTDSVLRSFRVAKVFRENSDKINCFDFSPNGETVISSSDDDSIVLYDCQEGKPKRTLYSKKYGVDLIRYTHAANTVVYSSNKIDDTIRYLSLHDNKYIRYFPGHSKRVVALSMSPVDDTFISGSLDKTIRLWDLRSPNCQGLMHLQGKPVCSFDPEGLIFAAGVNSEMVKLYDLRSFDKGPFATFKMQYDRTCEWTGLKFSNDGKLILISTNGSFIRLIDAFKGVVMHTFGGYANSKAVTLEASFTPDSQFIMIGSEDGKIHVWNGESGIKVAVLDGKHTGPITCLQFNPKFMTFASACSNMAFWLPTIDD

Each molecule was assayed against SARS-CoV-2 ORF6-HA (SARS-CoV-2) (UniProt P0DTC6) (assay: affinity purification with mass spectrometry).

Molecule | binding
WDR83 (protein, UniProt Q9BRX9 1-315) MAFPEPKPRPPELPQKRLKTLDCGQGAVRAVRFNVDGNYCLTCGSDKTLKLWNPLRGTLLRTYSGHGYEVLDAAGSFDNSSLCSGGGDKAVVLWDVASGQVVRKFRGHAGKVNTVQFNEEATVILSGSIDSSIRCWDCRSRRPEPVQTLDEARDGVSSVKVSDHEILAGSVDGRVRRYDLRMGQLFSDYVGSPITCTCFSRDGQCTLVSSLDSTLRLLDKDTGELLGEYKGHKNQEYKLDCCLSERDTHVVSCSEDGKVFFWDLVEGALALALPVGSGVVQSLAYHPTEPCLLTAMGGSVQCWREEAYEAEDGAG | binds
WDR11 (protein, UniProt Q9BZH6 1-1224) MLPYTVNFKVSARTLTGALNAHNKAAVDWGWQGLIAYGCHSLVVVIDSITAQTLQVLEKHKADVVKVKWARENYHHNIGSPYCLRLASADVNGKIIVWDVAAGVAQCEIQEHAKPIQDVQWLWNQDASRDLLLAIHPPNYIVLWNADTGTKLWKKSYADNILSFSFDPFDPSHLTLLTSEGIVFISDFSPSKPPSGPGKKVYISSPHSSPAHNKLATATGAKKALNKVKILITQEKPSAEFITLNDCLQLAYLPSKRNHMLLLYPREILILDLEVNQTVGVIAIERTGVPFLQVIPCFQRDGLFCLHENGCITLRVRRSYNNIFTTSNEEPDPDPVQELTYDLRSQCDAIRVTKTVRPFSMVCCPVNENAAALVVSDGRVMIWELKSAVCNRNSRNSSSGVSPLYSPVSFCGIPVGVLQNKLPDLSLDNMIGQSAIAGEEHPRGSILREVHLKFLLTGLLSGLPAPQFAIRMCPPLTTKNIKMYQPLLAVGTSNGSVLVYHLTSGLLHKELSIHSCEVKGIEWTSLTSFLSFATSTPNNMGLVRNELQLVDLPTGRSIAFRGERGNDESAIEMIKVSHLKQYLAVVFRDKPLELWDVRTCTLLREMSKNFPTITALEWSPSHNLKSLRKKQLATREAMARQTVVSDTELSIVESSVISLLQEAESKSELSQNISAREHFVFTDIDGQVYHLTVEGNSVKDSARIPPDGSMGSITCIAWKGDTLVLGDMDGNLNFWDLKGRVSRGIPTHRSWVRKIRFAPGKGNQKLIAMYNDGAEVWDTKEVQMVSSLRSGRNVTFRILDVDWCTSDKVILASDDGCIRVLEMSMKSACFRMDEQELTEPVWCPYLLVPRASLALKAFLLHQPWNGQYSLDISHVDYPENEEIKNLLQEQLNSLSNDIKKLLLDPEFTLLQRCLLVSRLYGDESELHFWTVAAHYLHSLSQEKSASTTAPKEAAPRDKLSNPLDICYDVLCENAYFQKFQLERVNLQEVKRSTYDHTRKCTDQLLLLGQTDRAVQLLLETSADNQHYYCDSLKACLVTTVTSSGPSQSTIKLVATNMIANGKLAEGVQLLCLIDKAADACRYLQTYGEWNRAAWLAKVRLNPEECADVLRRWVDHLCSPQVNQKSKALLVLLSLGCFFSVAETLHSMRYFDRAALFVEACLKYGAFEVTEDTEKLITAIYADYARSLKNLGFKQGAVLFASKAGAAGKDLLNELESPKEEPIEE | binds

Biological target: SARS-CoV-2 ORF6-HA (SARS-CoV-2) (UniProt P0DTC6)
Assay: affinity purification with mass spectrometry
Remark: another data set of the same source

Molecule | binding
DCAF5 (from UniProt Q96JK2 1-942) | binds
DDB1, endogenous (from UniProt Q16531 1-1140) | binds
WDR77 (from UniProt Q9BQA1 1-342) | binds
WDR82 (from UniProt Q6UXN9 1-313) | binds

These are yes or no findings as the source states them, for the method shown. Binding seen in cells or lysates may run through a third protein. A yes stands for co-enrichment or nearness to the bait. Other partners may have been found.
